Experimental data as given in PubChem BioAssay AID504834 (National Center for Advancing Translational Sciences (NCATS), 2011).
About 22,000 (6.9%) of roughly 320,000 compounds were called active. This list was built around the results that the source calls inconclusive (neither active nor inactive); the mix of calls is not that of the screen. The call rests on the fitted dose curve; in most records, active means well fitted inhibition curve with a large enough effect; inconclusive means small, poorly fitted or top-dose-only effect, or another doubt; inactive means no such curve, though single readings can be large or run the other way. A potency beside an inconclusive call is a rough fit, not a confirmed value.

experiment: Primary qHTS for delayed death inhibitors of the malarial parasite plastid, 96 hour incubation; conditions: P. falciparum luciferase reporter growth; series mostly up to 28.7 µM
Summary of the method: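 Infected RBCs, 2% Hct / 0.05% parasitemia final; luciferase-reporter P. falciparum; cpd 96 h, 37 C, 5% CO2; luciferase detection reagent; luminescence.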
On the % scale 0 is the no-effect control and ±100 the full control effect; potency means the concentration at half of the fitted maximal effect.

SMILES	Potency	activity change, negative = inhibition
Cc1ccccc1NS(=O)(=O)c1ccc2[nH]cc(C(=O)N(C)Cc3ccco3)c(=O)c2c1	inconclusive: 0.0029 µM [inhibitor, full curve, poor fit]	–
CCOc1ccc(Br)cc1S(=O)(=O)N1CCCC1	inconclusive: 18.5 µM [inhibitor, single point]	–
O=C(Cc1ccc([N+](=O)[O-])cc1)NCc1cccnc1	inactive	–
CN1C/C(=C/c2ccncc2)C(=O)/C(=C/c2ccncc2)C1	inconclusive: 13.1 µM [inhibitor, single point]	–
CC(=O)Nc1ccc(S(=O)(=O)N(C)CC(=O)Nc2ccccc2N2CCCC2)cc1	inconclusive: 13.1 µM [inhibitor, single point]	–
O=C(CSc1nnc(Nc2ccccc2F)s1)NC1CC1	inactive	–
CCCOc1ccc(-c2csc(NC(=O)CN3C(=O)CCC3=O)n2)cc1	inactive	–
CCOC(=O)N1CCC(=NNc2ccc(S(N)(=O)=O)cc2[N+](=O)[O-])CC1	–	inactive: 23.5% [at 5.75 µM]
CC1CCCCN1CC(=O)Nc1ccc(Oc2ccccc2)cc1 (stereo not drawn)	inconclusive: 18.5 µM [inhibitor, single point]	–
OCCC1CN(Cc2cc(F)ccc2F)CCN1CCCc1ccccc1 (stereo not drawn)	active: 13.1 µM	–
O=C1C=C(N2CCCCCC2)C(=O)N1c1ccc(Cl)cc1	inactive	–
CCOC(=O)c1c(NC(=S)N2CCOCC2)sc(C)c1C	inactive	–
CN(C)S(=O)(=O)c1cccc(NC(=O)CC23CC4CC(CC(C4)C2)C3)c1	inconclusive: 2.08 µM [inhibitor, full curve, poor fit]	–
Cc1c(OCc2ccc(C(=O)O)o2)ccc2c3c(c(=O)oc12)CCC3	inconclusive: 0.0928 µM [inhibitor, full curve, poor fit]	–
Cc1cccc(N(C)C(=O)c2coc(=O)c3ccccc23)c1	inconclusive: 4.15 µM [inhibitor, single point]	–
CCSC1=NCCN1S(=O)(=O)c1ccc(NC(C)=O)cc1	inactive	–
O=C(COC(=O)C1CCN(S(=O)(=O)c2cccc3cccnc23)CC1)c1ccccc1	inconclusive: 18.5 µM [inhibitor, single point]	–
Cc1ccc(S(=O)(=O)N(C)C)cc1NC(=O)CN1C(=O)NC(Cc2c[nH]c3ccccc23)C1=O (stereo not drawn)	inconclusive: 18.5 µM [inhibitor, single point]	–
Cc1cccc2sc(NC(=O)[C@@H]3CCCN3C(=O)c3cccs3)nc12	inactive	–
COCCN=c1scc(-c2cccs2)n1/N=C(\C)c1ccco1	inconclusive: 18.5 µM [inhibitor, single point]	–
CCCCC[C@H]1CN(C2CCCCC2)C(=O)[C@@H]1CC(=O)NCc1ccccc1	inactive	–
Cc1cc(C)c(OCC(=O)OCC(=O)NCc2cccs2)c(C)c1	inactive	–

SMILES	Potency	activity change, negative = inhibition
CCO[C@H]1OC(C(=O)Nc2ccccc2)=C[C@@H](c2cn(C(C)=O)c3ccccc23)[C@@H]1CCCO	inconclusive: 16.5 µM [inhibitor, single point]	–
CC(=O)NC(c1ccco1)c1cc(Cl)c2cccnc2c1O (stereo not drawn)	inconclusive: 18.5 µM [inhibitor, single point]	–
Cc1ccc(C2=NNC(=Nc3ccc(F)cc3)SC2)cc1	inconclusive: 9.28 µM [inhibitor, single point]	–
CCCOc1ccccc1NC(=O)c1ccc(N)cc1	inconclusive: 0.0117 µM [inhibitor, full curve, poor fit]	–
COc1ccc(OC)c(-n2nnnc2SCC(=O)Nc2ccccc2N2CCOCC2)c1	inactive	–
Cc1cccc(-n2c(SCc3cc(=O)n4ccsc4n3)nc3ccccc3c2=O)c1	inconclusive: 11.7 µM [inhibitor, single point]	–
COc1ccc(CNC(=O)Cn2cncn2)cc1OC	inconclusive: 0.0033 µM [inhibitor, full curve, poor fit]	–
Cc1ccccc1NC(=O)NNC(=O)OC(C)(C)C	inconclusive: 0.0052 µM [inhibitor, partial curve, poor fit]	–
Cc1ccc(NC2=NCC(=O)N2Cc2ccc3c(c2)OCO3)cc1	inconclusive: 16.5 µM [inhibitor, single point]	–
COc1ccc(NC(=O)C(=O)N/N=C/c2cccnc2)c(OC)c1	inconclusive: 3.29 µM [inhibitor, full curve, poor fit]	–
O=C(CN(C(=O)CNC(=O)c1ccco1)c1cccc(F)c1)NC1CCCCC1	inconclusive: 2.08 µM [inhibitor, full curve, poor fit]	–
CCOc1cc(C2C(C(=O)OC)=CN(C3CCCC3)C=C2C(=O)OC)cc(Br)c1O	inconclusive: 14.7 µM [inhibitor, partial curve]	–
COc1cccc(NC(=O)[C@@H](NC(=O)N2C[C@H]3C[C@@H](C2)c2cccc(=O)n2C3)C(C)C)c1	inactive	–
CC(C)n1cc(C(=O)c2cc(Br)ccc2O)cc(C#N)c1=O	active: 2.62 µM	–
COc1ccc(NC(=S)NCCCN2CCN(C3CCCCC3)CC2)cc1	inconclusive: 1.47 µM [inhibitor, partial curve]	–
CCCSc1nnc(-c2cnn(-c3ccccc3)c2-n2cccc2)n1C	inconclusive: 9.28 µM [inhibitor, partial curve, poor fit]	–
COc1ccc(OC)c(NC(=O)c2ccc(NS(=O)(=O)c3c(C)noc3C)cc2)c1	inconclusive: 4.15 µM [inhibitor, partial curve, poor fit]	–
CCSc1nnc([C@H](Cc2c[nH]c3ccccc23)NC(=O)OC(C)(C)C)o1	inconclusive: 18.5 µM [inhibitor, single point]	–
CCCc1c(C(=O)OCC)[nH]c2c1C(=O)CCC2	inconclusive: 10.4 µM [inhibitor, single point]	–
Cc1ccc(CNS(=O)(=O)c2c(C(=O)N3CCCCC3)c(C)n(C)c2C)o1	inconclusive: 13.1 µM [inhibitor, single point]	–
COc1ccc2sc(-c3ccc(N(C)C)cc3)c(C#CCO)c2c1	inconclusive: 16.5 µM [inhibitor, single point]	–
